# In the supplement of paper PMC3334620:
# In all, about 33,000 sequences were measured (“E-score (-0.5 to 0.5)”: median about -0.0034, highest 2% from about 0.25 on). This is one part of the list.
# Target: T1, Yap3 (UniProt P38749)
# T1 sequence: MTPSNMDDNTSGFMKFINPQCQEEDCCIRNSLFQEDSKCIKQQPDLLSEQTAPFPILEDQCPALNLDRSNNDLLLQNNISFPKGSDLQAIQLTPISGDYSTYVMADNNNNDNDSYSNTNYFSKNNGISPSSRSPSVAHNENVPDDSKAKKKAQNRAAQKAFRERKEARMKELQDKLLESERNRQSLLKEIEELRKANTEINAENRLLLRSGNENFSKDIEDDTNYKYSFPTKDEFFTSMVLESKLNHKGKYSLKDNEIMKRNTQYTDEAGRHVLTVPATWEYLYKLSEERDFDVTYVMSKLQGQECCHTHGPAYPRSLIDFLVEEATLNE
# Assay: PBM E-score (8-mer binding enrichment) (E-score (-0.5 to 0.5)); higher = stronger / more preferred TF binding
# Conditions: protein concentration: 100 nM; construct: GST-full length
# How it was run: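 GST-tagged yeast TFs (full-length or DNA-binding domain) were made by PURExpress in vitro transcription/translation and applied at about 100-200 nM to universal all-10-mer Agilent arrays. The arrays were made double-stranded by primer extension, on fresh or once-stripped slides. Bound protein was detected with fluorescent anti-GST, and scans were normalised with masliner. Each ungapped eight-base word, pooled with its reverse complement, received an E-score (modified Wilcoxon-Mann-Whitney statistic) from the Universal PBM Analysis Suite.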
row,Sequence,PBM E-score
1,AACACGCA,0.0637
2,CGTCTCCC,-0.0443
3,CATGCCCC,-0.0993
4,TGTTGGAA,0.122
5,ATCGCAGG,-0.087
6,ATATTTGC,0.186
7,AGCAGATC,-0.0406
8,GAGCGTGC,-0.0274
9,GGGCAGAA,0.0926
10,ATCGCCTG,-0.258
11,CGGGCGAG,-0.0755
12,GCAGAGGC,-0.269
13,AAATAACG,0.218
14,AGACGCAA,0.0908
15,CTCGTAGC,0.0534
16,ATCTGTTC,0.0599
17,GGATGTAA,0.155
18,CACTTTAG,-0.0635
19,ATTGAGAC,0.0362
20,GGATTCTA,-0.0259
21,CATACGGA,0.0891
22,CATGAAAG,0.0754
23,CCGGGCGC,-0.253
24,AGCGAGGA,-0.00519
25,GCGCAAAC,0.0814

# A second format for part of the listing above:
row	Sequence	PBM E-score
4	TGTTGGAA	0.122
5	ATCGCAGG	-0.087

# (further entries)

row,Sequence,PBM E-score
1,GCTGCAAC,-0.126
2,ATGTGTTC,0.0344
3,AGGGCAAA,0.0194
4,CGCACCCG,-0.115
5,TCGACGAA,0.0901
6,TCCGGAAA,0.0257
7,GTTAGGAA,0.0835
8,GCCAGCAC,-0.146
9,CGAGCGCA,0.127
10,CAACTACC,-0.00416
11,ACTTAAAC,0.133
12,TAGACGCA,-0.122
13,ATGCCCGC,-0.053
14,CACATGAG,-0.0704
15,CTGTCCAC,-0.121
16,CCACGAGG,0.0512
17,AAATATAA,0.275
18,ACTACAGC,-0.2
19,AGCGTCGC,-0.168
20,ATGACACG,0.118
21,AAACCGAG,0.0155
22,AAGCAGGG,-0.151
23,AGGACGGA,-0.148
24,GCATAATA,0.283
25,CCGGGCGA,-0.133

row,Sequence,PBM E-score
1,AGTGTAAT,0.169
2,AAACGGCG,0.177
3,CACTAAAC,0.108
4,GGTGGGGA,0.125
5,AAACTGTA,0.0968
6,ACAATTTG,0.023
7,CATCTTAC,0.125
8,ACAACTAT,0.127
9,CCCATGCA,-0.115
10,TCTATAAA,0.111
11,CGGATATC,0.117
12,ATAGTCGA,0.0937
13,ACACTAGA,0.0595
14,AGCATAGG,-0.106
15,ACGATGGA,0.0019
16,AGGGGATG,-0.194
17,AAGTAGGC,0.0175
18,AGATGCCG,-0.0719
19,GACTAGCC,-0.283
20,TTAGTAAA,0.295
21,ACCGCGAG,-0.0409
22,CGGAACCA,0.13
23,CGGCCCAA,-0.0985
24,ATTGATGA,-0.00625
25,ACCACCAT,-0.0237

row,Sequence,PBM E-score
1,AATAAGCT,0.0455
2,GCTTGTTA,0.0633
3,GCCCTTTA,-0.146
4,CGTCTTGC,-0.012
5,GATTTAAA,-0.0257
6,CCAATATA,0.0353
7,CATTCCGG,-0.21
8,CAGGCCCC,-0.261
9,GCCATTAC,0.0942
10,ATCAAGAT,-0.0565
11,GGCCGATA,-0.12
12,AGGGCTTC,-0.213
13,TACTTTAA,0.105
14,ACAAGGGG,-0.193
15,ACCTATCG,0.146
16,TTCACGAA,-0.109
17,ATGGCTTA,0.0389
18,AAGCTAGG,-0.00103
19,CCCCAGTC,-0.334
20,CAGCAATA,0.0952
21,GCTATAGC,-0.159
22,GGCACCCC,-0.351
23,AGCCGAGA,-0.121
24,AACATCTG,-0.088
25,CTGTGACA,0.0329

row,Sequence,PBM E-score
1,ATAGACGC,0.105
2,ATCAGGAA,0.073
3,CCGCTGCA,0.024
4,AACAGAGC,-0.046
5,CTGCGAAG,-0.217
6,TCGGGAGA,-0.0734
7,AGAATCCG,0.00149
8,AATCTTCT,-0.0095
9,CAAGGAGG,0.102
10,CTGTCTTA,0.071
11,AGACACGG,0.0134
12,CGACTAGC,-0.0475
13,ATGCCCCA,-0.123
14,ACATTTTG,0.171
15,ACGGTGTG,-0.181
16,ACCCACAT,-0.011
17,CCGAATAA,0.193
18,CCACAAAG,0.00297
19,GTACGCTA,0.00027
20,ACAGAAGA,0.0799
21,CGAGCCAC,-0.228
22,CTAAGTTA,0.105
23,AAGATCAT,0.0449
24,CCTCTGAC,-0.16
25,CAACAACC,0.0271

row,Sequence,PBM E-score
1,CGCGCAAG,0.0939
2,TCCTCAGA,0.0579
3,TAAAACAA,0.0703
4,GGGGAATA,0.0481
5,GATTAATA,0.367
6,ACCAGACC,-0.206
7,CCAACGAC,-0.0578
8,ATAACGAC,0.216
9,GAGAATTA,0.214
10,AAGATATT,0.212
11,GTATGTTA,0.137
12,GATTAGTA,0.218
13,CGACTCGC,-0.048
14,ACCTCCGG,-0.0361
15,AGAATCCA,-0.104
16,GATTGGGC,0.0771
17,GGAAAACA,0.243
18,CTCTATCA,0.00374
19,ACTGACCT,-0.0214
20,CAAACGTA,0.132
21,GTACCGTA,0.0667
22,GCTTGCCC,-0.375
23,GCGTCAGC,-0.246
24,CGCTATAC,0.0139
25,AGGCTACC,-0.232

row,Sequence,PBM E-score
1,ATGTTTTG,0.172
2,CAGTACGG,-0.0221
3,GTCTCAGA,-0.0813
4,CGATAAAC,-0.0635
5,TGCAGAAA,0.18
6,AGGACAAA,0.167
7,GCGCGATA,0.099
8,CACGTTCA,-0.0368
9,CCCGGTTC,-0.304
10,AAACCGCA,-0.182
11,GACCCTGA,-0.17
12,TCGGGACA,-0.21
13,AGTAGGTG,-0.044
14,CATCTATC,-0.0241
15,AAATTGCA,0.138
16,GTCTAACA,-0.104
17,CGGAACGA,0.188
18,ATTGAGTC,-0.0197
19,GTCTACGA,-0.227
20,AGTTGTCC,-0.0231
21,CGATCTGA,-0.0186
22,ACAGCGGC,-0.0324

# Already shown: entries from further up.
row,Sequence,PBM E-score
13,AGTAGGTG,-0.044
14,CATCTATC,-0.0241
15,AAATTGCA,0.138
